This is one part of the list. These are further read-outs of the screen, such as a control signal, another cell line or another target. No call is given for them. The list favours compounds with an active or inconclusive main result. Words in brackets tell the shape of the fitted curve; partial curves, single points and poor fits give uncertain potencies.

The term AC50 denotes the concentration at which the activity in the assay is half-maximal. The low end stands for greater potency, the high end for weaker potency.

The nature of this assay: qHTS Assay for Lipid Storage Modulators in Drosophila S3 Cells.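 As to cell number change: cells counted by Cell Tracker Red CMTPX staining in the red channel.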 As to conditions: BODIPY lipid droplet fluorescence, 18-24 h; for cell number change: measured here: cell count max response, cells fed with added oleic acid. In short, it runs like this: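 Drosophila S3 cells loaded with oleic acid (400 uM, as added) and compounds at several concentrations; lipid droplets imaged by 488-nm laser-scanning cytometry, 500–530 nm intensity and object ratio to cell channel. Percent activity normalized to 20 uM Triacsin C.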
For orientation: Quantitative high-throughput screening tests each substance at several concentrations.

[1] abbreviates: measured here: cell number channel AC50, cells fed with added oleic acid.
The mark [2] stands for this setting: measured here: lipid fluorescence (Fed channel) AC50, cells fed with added oleic acid.

For `COc1cc(/C=C2/CC(C)OC2=O)c([N+](=O)[O-])cc1OC` (configuration not stated), the cell number change is -13%.
In the case of `COc1ccc(NC(=O)CNS(=O)(=O)c2ccc(Cl)cc2)cc1OC`, the cell number change was 0.344%. Further, the AC50 under setting [1] is 0.58 µM [falling, single point]. In addition, the half-maximal activity concentration (AC50) under setting [2] was 8.2 µM [rising, partial curve].
Regarding `O=c1c2c(nc3nc[nH]n13)CCC2`, the cell number change was -58.8%. In addition, the AC50 under setting [1] was 23.1 µM [falling, single point].
For `COc1ccc(OC)c(NC(=O)c2ccc(S(=O)(=O)N3CCN(C)CC3)cc2)c1`, the cell number change is 15.8%. In addition, under setting [2], the half-maximal activity concentration (AC50) was 3.66 µM [rising, partial curve].
As for `CC1CCN(S(=O)(=O)c2cc(C(=O)Nc3ccccn3)ccc2Br)CC1`, the cell number change was -25%. The half-maximal activity concentration (AC50) under setting [1] is 0.058 µM [falling, full curve, poor fit]. For the same compound, the concentration at half-maximal activity (AC50) under setting [2] was 1.46 µM [falling, single point].
`COc1ccc(NC(=S)N2CCC(C(=O)N3CCCCCC3)CC2)cc1`: the cell number change is 75.2%. For the same compound, the AC50 under setting [1] is 20.6 µM [rising, single point].
With `COc1ccc(/C=C\c2nc(=O)c3ccccc3o2)cc1`, the cell number change is -27.7%. Moreover, the concentration at half-maximal activity (AC50) under setting [2] is 29.1 µM [falling, single point].
On to `COc1ccccc1Nc1nnc(SCC(=O)N2CCCC2=O)s1`, for which the cell number change worked out at 62%. Also, under setting [1], the AC50 is 0.00651 µM [rising, full curve, poor fit]. The half-maximal activity concentration (AC50) under setting [2] is 0.0184 µM [rising, full curve].
For the compound `NC(=O)COc1ncnc2scc(-c3ccc(F)cc3)c12`, the cell number change was determined as 44.3%. Moreover, the half-maximal activity concentration (AC50) under setting [1] is 0.184 µM [rising, full curve]. Moreover, under setting [2], the AC50 is 0.116 µM [rising, full curve].
For the compound `O=C(CN1CCN(c2ccccn2)CC1)NCc1cccs1`, the cell number change was 14.3%. The AC50 under setting [2] is 0.58 µM [falling, full curve].
In the case of `O=C1c2ccccc2S(=O)(=O)N1CC1CC(c2ccccc2)=NO1` (configuration not stated), the cell number change was found to be 14%. Further, under setting [2], the AC50 was 2.06 µM [rising, full curve, poor fit].
`N#CC(C(=O)O)=C1CCCC1`: the AC50 under setting [2] was 20.6 µM [falling, single point].
`Cc1ccc(CC(=O)NCC(O)c2ccccc2)cc1` (configuration not stated): the cell number change is 19.4%. Further, the AC50 under setting [2] is 0.517 µM [rising, full curve].
For `Cc1ccc(-n2c(SCC(N)=O)nnc2-c2ccco2)cc1`, the cell number change was 8.52%.
With `COc1cccc(C(=O)NCc2ccc3c(c2)cc(C)n3C)c1`, the cell number change was -4.69%.
Consider `O=C(CSc1c2c(nc3cc(Cl)ccc13)CCCC2)NCCCN1CCOCC1`, for which the cell number change is -13.8%. Besides, the AC50 under setting [2] is 4.11 µM [falling, single point].
Take `COc1ccc(S(=O)(=O)CC2(O)CCN(C(=O)C(C)(C)C)CC2)cc1`: the cell number change is 35.6%. The concentration at half-maximal activity (AC50) under setting [1] is 29.1 µM [rising, single point]. Also, the AC50 under setting [2] was 29.1 µM [rising, single point].
As to `CN1C(C)(C)c2ccccc2OS1(=O)=O`, the cell number change was determined as 7.77%.
Turning to `Cc1cc2oc(=O)cc(Cn3ccnc3)c2cc1Cl`, the cell number change worked out at 20.7%. For the same compound, the AC50 under setting [2] was 2.06 µM [rising, full curve, poor fit].
Regarding `CSCC[C@H](NC(=O)C1CCN(S(=O)(=O)c2ccccc2)CC1)C(=O)NC1CC1`, under setting [2], the half-maximal activity concentration (AC50) was 0.651 µM [rising, single point].
Consider `CCN(CC)c1ccc(NC(=O)COC(=O)CCC(=O)c2cccs2)cc1`, for which the cell number change was -2.46%. Moreover, the AC50 under setting [2] was 0.58 µM [rising, single point].
As to `CC(C)c1ccc(/C=N/NC(=O)c2c(Cl)cnn2C)cc1`, the cell number change is -1.07%. Also, the AC50 under setting [2] is 1.46 µM [rising, partial curve].
Take `O=C(CCc1[nH]c2ccccc2c1Sc1ccccc1)N(CCO)CCO`: the cell number change is -20.9%. The AC50 under setting [2] was 29.1 µM [falling, single point].
`COc1ccccc1NC(=O)CC(NCCN(C)C)C(=O)O` (configuration not stated): the cell number change was -170%. Moreover, under setting [1], the AC50 is 23.1 µM [falling, partial curve, poor fit]. In addition, the concentration at half-maximal activity (AC50) under setting [2] was 18.4 µM [falling, partial curve].
Consider `COc1ccc(NC(=O)c2cc(-c3ccccc3)nc3c2c(C)nn3-c2ccccc2)c(OC)c1`, for which the cell number change amounted to 17.2%. Also, the concentration at half-maximal activity (AC50) under setting [2] was 20.6 µM [rising, partial curve].
For `O=C(Nc1ccc2ccccc2c1)N1CCN(c2ncccc2C(F)(F)F)CC1`, the cell number change is -11.7%. Under setting [2], the AC50 was 0.731 µM [falling, single point].
As for `O=C(CNS(=O)(=O)c1ccccc1)NCc1ccco1`, the cell number change was found to be 18.4%. In addition, the AC50 under setting [2] is 29.1 µM [rising, single point].
Take `COc1cccc(/C=C2/SC(=S)N(CCCC(=O)Nc3ccc(O)cc3)C2=O)c1`: the cell number change was -44.6%. Moreover, the half-maximal activity concentration (AC50) under setting [1] is 16.4 µM [falling, single point]. Besides, the AC50 under setting [2] is 11.6 µM [falling, partial curve].
`O=C(c1ccco1)N1CCN(c2cc(C(F)(F)F)nc3ncnn23)CC1`: the cell number change is 3.56%. Besides, the AC50 under setting [2] was 5.17 µM [falling, partial curve].
For `COc1ccc(C(=O)OCC(=O)Nc2ccc3c(c2)OCO3)cc1S(=O)(=O)N1CCOCC1`, the cell number change was -35%. Moreover, the AC50 under setting [1] is 32.6 µM [falling, single point]. Also, the AC50 under setting [2] is 29.1 µM [falling, single point].
As to `COc1ccc(CNC(=O)CCSCc2ccc(C)cc2)cc1`, the cell number change came out at 29.3%. Besides, under setting [2], the AC50 is 32.6 µM [rising, single point].
As to `O=C(O)Cc1ccc(NC(=O)COc2ccc3ccccc3c2)cc1`, the cell number change was found to be 43.1%. In addition, the half-maximal activity concentration (AC50) under setting [2] was 0.103 µM [rising, full curve].
For `O=C(NCCCN1CCOCC1)c1ccc(S(=O)(=O)N2CCOCC2)cc1`, the cell number change was -54.1%. Under setting [1], the half-maximal activity concentration (AC50) is 29.1 µM [falling, single point]. Moreover, under setting [2], the half-maximal activity concentration (AC50) was 0.116 µM [falling, full curve, poor fit].
For the compound `COc1ccc(OCC(O)CN2CCCCC2)cc1` (configuration not stated), the AC50 under setting [2] was 29.1 µM [rising, single point].
`CCCc1[nH]n(-c2nc3ccccc3s2)c(=O)c1C=NCCN1CCOCC1`: the cell number change was found to be 35.7%. Also, under setting [1], the AC50 was 6.51 µM [rising, partial curve].
For the compound `O=S(=O)(c1cccc(C(F)(F)F)c1)N1CCC(c2nc3ccccc3[nH]2)CC1`, the AC50 under setting [2] is 0.58 µM [falling, full curve].
On to `CCNC(=S)N/N=C/c1cn(Cc2ccc(F)cc2)c2ccccc12`, for which the cell number change was -11.6%. Also, the AC50 under setting [2] was 1.84 µM [rising, full curve, poor fit].
Consider `Cc1ccc(S(=O)(=O)Nc2cc(C)c(O)c(Sc3n[nH]c(C)n3)c2)cc1`, for which the cell number change is -11.7%. Besides, the AC50 under setting [2] was 29.1 µM [rising, single point].
As for `Cc1cccc(CN2CCc3c(OCC(=O)N4CCCc5ccccc54)cccc3C2=O)c1`, the cell number change is -30.9%. In addition, the AC50 under setting [1] was 29.1 µM [falling, single point]. Besides, the AC50 under setting [2] is 23.1 µM [falling, single point].
For `CC(=O)c1c(C(C)=O)c(C)n(-c2ccc(N)cc2)c1C`, the cell number change amounted to 38.2%. For the same compound, under setting [1], the concentration at half-maximal activity (AC50) is 7.31 µM [rising, partial curve].
As for `Cc1noc(C)c1S(=O)(=O)Nc1ccc(C(=O)NCCc2ccccc2)cc1`, the cell number change came out at 3.43%. For the same compound, under setting [2], the AC50 was 0.58 µM [falling, single point].
As for `CC(C)c1onc(C(=O)N2CCN(c3ccc(F)cc3)CC2)c1[N+](=O)[O-]`, the AC50 under setting [2] was 3.66 µM [rising, single point].
As to `O=C(CNC(=O)c1ccccc1)OCC(=O)N1c2ccccc2Sc2ccccc21`, the cell number change was -60.8%. Under setting [1], the AC50 was 29.1 µM [falling, single point]. The AC50 under setting [2] was 0.411 µM [falling, full curve].
Regarding `O=C(O)C1C2C=CC(O2)C1C(=O)Nc1ccccc1C(F)(F)F` (configuration not stated), the cell number change turned out to be 1.26%. Besides, under setting [2], the AC50 is 0.651 µM [falling, single point].
On to `O=C(Cn1cnc2c(nnn2Cc2ccc(F)cc2)c1=O)NCc1ccc(F)cc1`, for which the cell number change is -8.05%. Moreover, the half-maximal activity concentration (AC50) under setting [1] was 1.16 µM [falling, single point]. Besides, the concentration at half-maximal activity (AC50) under setting [2] was 1.16 µM [falling, single point].
As for `O=[N+]([O-])c1ccc(COc2cccnc2)cc1`, the cell number change turned out to be 90.9%. For the same compound, the AC50 under setting [1] is 20.6 µM [rising, single point].
As for `CN1C(=S)N(c2ccccc2)C(=O)/C1=C/c1cccs1`, the cell number change is 7.88%. The AC50 under setting [2] was 9.2 µM [rising, partial curve, poor fit].
As for `CCOc1cc(-c2nc(-c3ccccc3)c(-c3cc([N+](=O)[O-])ccc3C)[nH]2)ccc1O`, the cell number change was -40.1%. Besides, the AC50 under setting [1] is 7.31 µM [falling, partial curve]. The AC50 under setting [2] is 13 µM [falling, partial curve].
As to `CC1CN(c2oc(COc3ccc(Cl)cc3Cl)nc2C#N)CC(C)O1` (configuration not stated), the cell number change was -25.7%. In addition, the AC50 under setting [2] was 29.1 µM [falling, single point].
Turning to `COc1ccc(CCNC(=O)c2cc(C3CC3)on2)cc1OC`, the cell number change is -1.17%. Further, the AC50 under setting [2] is 0.0517 µM [falling, full curve, poor fit].
Take `CC(C)(C)SCCNC(=O)c1ccc(CN2CCc3ccccc3C2)cc1`: the cell number change amounted to 10.4%. Further, under setting [2], the AC50 is 1.84 µM [rising, partial curve, poor fit].
`CC1CCCCN1C(=O)Nc1ccccc1Cl` (configuration not stated): the cell number change worked out at 17.3%. Moreover, the AC50 under setting [1] is 0.731 µM [falling, single point]. Further, the concentration at half-maximal activity (AC50) under setting [2] was 0.731 µM [falling, single point].
Regarding `Cc1nc(C#N)c(N/N=C/c2cccc(Cl)c2)o1`, the cell number change is 27.3%.
In the case of `Cn1cnc2cc(NCc3ccccc3O)ccc21`, the cell number change was -30.7%. Besides, the half-maximal activity concentration (AC50) under setting [1] was 5.8 µM [falling, full curve, poor fit].
In the case of `CSc1cccc(CNC(=O)C2CCC(=O)N(CCCN3CCCC3=O)C2)c1` (configuration not stated), the cell number change is -10.3%. Besides, the AC50 under setting [2] is 14.6 µM [rising, partial curve].
`CCn1c(C(=O)NCCCc2ccccc2)cc2sccc21`: the cell number change turned out to be 7.49%. Moreover, the AC50 under setting [2] is 0.206 µM [rising, full curve, poor fit].
Consider `Cc1nnc(SCC(=O)Nc2ccc3c(c2)OCO3)n(N)c1=O`, for which the cell number change worked out at 5.55%. Further, the AC50 under setting [2] was 6.51 µM [falling, single point].
In the case of `O=C(COC(=O)c1ccc(O)cc1O)Nc1nnc(-c2ccccc2)o1`, the cell number change came out at 22.5%.
`CC(C)c1ccc(C(=O)N2CCCN(C(=O)c3ccc(C(C)C)cc3)CC2)cc1`: the cell number change was -38.5%. Also, under setting [1], the AC50 is 16.4 µM [falling, single point]. Further, the AC50 under setting [2] was 29.1 µM [falling, single point].

Values taken from PubChem BioAssay AID2685 (National Center for Advancing Translational Sciences (NCATS), 2010).
